{"source": "patent US20170290821A1", "about": "(priority 2014, published 2017)", "system": "influenza virus", "format": "cell-based", "note": "Where two headings read alike, the source gives them in different places. At least one structure is not confirmed: it was looked up by name or label, or the drawing left a doubt. Some results were stated once for a whole list of compounds, not compound by compound.", "data": [{"smiles": "CCC[C@H](NC(=O)/C(C#N)=C/c1cccc(Br)n1)c1ccccc1", "note": "[Compound J25, (2E)-3-(6-bromo-2-pyridinyl)-2-cyano-N-[1S-phenylbutyl]-2-propenamide]", "values": [{"measurement": "virus titer reduced by a common logarithmic value", "value": "≥ 5", "unit": "common logarithmic value"}]}, {"smiles": "N#CC[C@H](C1CCCC1)n1cc(-c2ncnc3[nH]ccc23)cn1", "note": "[Ruxolitinib]", "values": [{"measurement": "anti-influenza virus effect", "value": "had an anti-influenza virus effect"}, {"measurement": "effect on virus titer", "value": "significantly reduced a virus titer"}]}, {"smiles": "CC(=O)C(C)=NO", "note": "[2,3-Butanedione 2-Monoxime]", "values": [{"measurement": "virus titer reduced by a common logarithmic value", "setting": "30 mM, MOI 0.001, 48 hours", "value": "≥ 5", "unit": "common logarithmic value"}]}]}
